# Tests used:
# Type in all cases: in vivo
# [1] = tested on: nude mice bearing GW39 colonic cancer xenografts; test: Kidney uptake and dosimetry of 188Re-Fab′ Mu-9 under L-lysine treatment; conditions: L-lysine treated
# Source text: (§1) After cervical dislocation, the animals were dissected.
# No effect on the uptake in the tunor or other organs was observed.
# [2] = tested on: GW39 colonic cancer xenograft bearing nude mice; test: Dosimetry of 111In/88Y-Bz-DTPA-Fab′ MN-14 under L-lysine treatment; conditions: L-lysine four times 2000 μg/g i.p.
# Procedure: as §1
# To test the effectiveness of L-lysine in reduction of kidney uptake of indium and yttrium-labeled Fab′ fragments, a mixture of ^111In and ^88Y-labeled Fab′ fragments of the anti-CEA antibody MN-14 were injected into GW39 colon carcinoma bearing nude mice (injected with four times 2000 μg/g L-lysine; the control group were untreated). FIG. 4 and Table 4 suns the results.
# mice [3] = test: Kidney uptake of 125I-labeled Fab′ NP-4 and dosimetry for 131I-labeled Fab′ under L-lysine; conditions: L-lysine 4 × 2 mg/g
# Source text: as §1
# mice [4] = test: Kidney uptake and dosimetry of yttrium-labeled F(ab′)2 of anti-CD22 LL2 under L-lysine; conditions: Lys treated
smiles,measurement,setting,value
NCCCC[C@H](N)C(=O)O [L-lysine],"T/NT, Blood",[1]; 188Re-Fab′ Mu-9,3.76
same,"T/NT, Bone",[1]; 188Re-Fab′ Mu-9,7.11
same,"T/NT, Kidney",[1]; 188Re-Fab′ Mu-9,0.25
same,"T/NT, Liver",[1]; 188Re-Fab′ Mu-9,1.30
same,"T/NT, Lung",[1]; 188Re-Fab′ Mu-9,1.86
same,"T/NT, Spleen",[1]; 188Re-Fab′ Mu-9,2.64
same,Blood dose of 188Re-Fab′ Mu-9,[1],203.1 cGy/mCi
same,Bone dose of 188Re-Fab′ Mu-9,[1],107.3 cGy/mCi
same,GW39 dose of 188Re-Fab′ Mu-9,[1],763.4 cGy/mCi
same,Kidney dose of 188Re-Fab′ Mu-9,[1],3085.2 cGy/mCi
same,Liver dose of 188Re-Fab′ Mu-9,[1],587.6 cGy/mCi
same,Lung dose of 188Re-Fab′ Mu-9,[1],410.4 cGy/mCi
same,Spleen dose of 188Re-Fab′ Mu-9,[1],289.0 cGy/mCi
same,"Blood 90Y dose, cGy/mCi based on 88Y",[2],588.4 cGy/mCi
same,"Blood 90Y dose, cGy/mCi based on 111In",[2],508.7 cGy/mCi
same,"Bone 90Y dose, cGy/mCi based on 88Y",[2],588.4 cGy/mCi
same,"Bone 90Y dose, cGy/mCi based on 111In",[2],508.7 cGy/mCi
same,"GW39 90Y dose, cGy/mCi based on 88Y",[2],5751.1 cGy/mCi
same,"GW39 90Y dose, cGy/mCi based on 111In",[2],6478.1 cGy/mCi
same,"Intestine 90Y dose, cGy/mCi based on 88Y",[2],560.2 cGy/mCi
same,"Intestine 90Y dose, cGy/mCi based on 111In",[2],768.1 cGy/mCi
same,"Kidney 90Y dose, cGy/mCi based on 88Y",[2],6231.0 cGy/mCi
same,"Kidney 90Y dose, cGy/mCi based on 111In",[2],7849.0 cGy/mCi
same,"Liver 90Y dose, cGy/mCi based on 88Y",[2],1651.9 cGy/mCi
same,"Liver 90Y dose, cGy/mCi based on 111In",[2],2096.8 cGy/mCi
same,"Lung 90Y dose, cGy/mCi based on 88Y",[2],431.1 cGy/mCi
same,"Lung 90Y dose, cGy/mCi based on 111In",[2],662.8 cGy/mCi
same,"Spleen 90Y dose, cGy/mCi based on 88Y",[2],499.2 cGy/mCi
same,"Spleen 90Y dose, cGy/mCi based on 111In",[2],564.5 cGy/mCi
same,"T/NT yttrium, Blood",[2],9.77
same,"T/NT yttrium, Bone",[2],9.77
same,"T/NT yttrium, Intestine",[2],10.26
same,"T/NT yttrium, Kidney",[2],0.93
same,"T/NT yttrium, Liver",[2],3.48
same,"T/NT yttrium, Lung",[2],13.3
same,"T/NT yttrium, Spleen",[2],11.52
same,"T/NT yttrium, Washed bone",[2],11.81
same,"Washed bone 90Y dose, cGy/mCi based on 88Y",[2],486.8 cGy/mCi
same,"Washed bone 90Y dose, cGy/mCi based on 111In",[2],277.6 cGy/mCi
same,Blood dose of 131I-Fab′ NP-4,mice [3],116.6 cGy/mCi
same,Kidney dose of 131I-Fab′ NP-4,mice [3],116.6 cGy/mCi
same,Liver dose of 131I-Fab′ NP-4,mice [3],77.2 cGy/mCi
same,Lung dose of 131I-Fab′ NP-4,mice [3],120.2 cGy/mCi
same,Spleen dose of 131I-Fab′ NP-4,mice [3],42.1 cGy/mCi
same,Blood dose of yttrium-labeled F(ab′)2 LL2,mice [4],3651.3 cGy/mCi
same,Kidney dose of yttrium-labeled F(ab′)2 LL2,mice [4],10813.9 cGy/mCi
same,Liver dose of yttrium-labeled F(ab′)2 LL2,mice [4],5375.0 cGy/mCi
same,Lungs dose of yttrium-labeled F(ab′)2 LL2,mice [4],2192.1 cGy/mCi
same,Spleen dose of yttrium-labeled F(ab′)2 LL2,mice [4],3031.9 cGy/mCi
